# Assay results as given in the supplement of paper PMC10849652.
# Amino acid sequences for entries named in this document (tags omitted). A change or cut given only in a name is not applied to a line headed by its entry.
# UniProt Q96A26: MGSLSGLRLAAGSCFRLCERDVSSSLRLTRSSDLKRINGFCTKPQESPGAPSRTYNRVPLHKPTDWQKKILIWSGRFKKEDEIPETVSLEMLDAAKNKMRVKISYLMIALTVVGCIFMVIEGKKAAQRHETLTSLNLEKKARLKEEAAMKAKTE
# UniProt Q8N128: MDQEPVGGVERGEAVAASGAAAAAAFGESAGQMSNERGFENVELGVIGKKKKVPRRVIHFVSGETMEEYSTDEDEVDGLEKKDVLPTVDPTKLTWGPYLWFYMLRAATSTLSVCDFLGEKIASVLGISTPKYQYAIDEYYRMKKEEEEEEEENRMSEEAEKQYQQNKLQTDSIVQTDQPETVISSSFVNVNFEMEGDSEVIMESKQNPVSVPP
# UniProt Q9NV70: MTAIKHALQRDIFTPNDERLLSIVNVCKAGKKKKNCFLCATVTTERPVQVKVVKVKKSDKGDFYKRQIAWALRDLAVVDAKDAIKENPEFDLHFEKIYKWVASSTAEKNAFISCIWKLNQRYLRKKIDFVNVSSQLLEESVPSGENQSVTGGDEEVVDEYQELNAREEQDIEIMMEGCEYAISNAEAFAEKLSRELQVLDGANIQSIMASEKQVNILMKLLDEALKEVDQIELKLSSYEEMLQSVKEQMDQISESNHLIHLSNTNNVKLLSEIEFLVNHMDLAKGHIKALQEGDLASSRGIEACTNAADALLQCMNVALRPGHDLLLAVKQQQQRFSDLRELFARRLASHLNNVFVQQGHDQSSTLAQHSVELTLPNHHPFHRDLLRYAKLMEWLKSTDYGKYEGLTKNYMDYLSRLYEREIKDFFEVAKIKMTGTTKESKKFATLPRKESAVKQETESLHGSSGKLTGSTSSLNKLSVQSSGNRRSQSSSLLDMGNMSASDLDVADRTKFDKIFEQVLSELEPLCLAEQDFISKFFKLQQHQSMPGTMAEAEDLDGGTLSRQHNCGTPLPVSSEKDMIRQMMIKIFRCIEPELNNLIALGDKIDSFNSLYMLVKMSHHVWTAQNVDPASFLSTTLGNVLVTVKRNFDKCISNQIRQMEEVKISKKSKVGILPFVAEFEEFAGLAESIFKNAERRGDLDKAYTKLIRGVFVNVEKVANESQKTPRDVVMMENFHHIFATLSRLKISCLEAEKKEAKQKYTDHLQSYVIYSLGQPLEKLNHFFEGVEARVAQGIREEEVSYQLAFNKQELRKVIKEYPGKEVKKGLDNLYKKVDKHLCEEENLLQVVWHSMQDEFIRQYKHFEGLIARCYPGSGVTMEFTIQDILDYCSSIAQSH
# UniProt Q9NRY5: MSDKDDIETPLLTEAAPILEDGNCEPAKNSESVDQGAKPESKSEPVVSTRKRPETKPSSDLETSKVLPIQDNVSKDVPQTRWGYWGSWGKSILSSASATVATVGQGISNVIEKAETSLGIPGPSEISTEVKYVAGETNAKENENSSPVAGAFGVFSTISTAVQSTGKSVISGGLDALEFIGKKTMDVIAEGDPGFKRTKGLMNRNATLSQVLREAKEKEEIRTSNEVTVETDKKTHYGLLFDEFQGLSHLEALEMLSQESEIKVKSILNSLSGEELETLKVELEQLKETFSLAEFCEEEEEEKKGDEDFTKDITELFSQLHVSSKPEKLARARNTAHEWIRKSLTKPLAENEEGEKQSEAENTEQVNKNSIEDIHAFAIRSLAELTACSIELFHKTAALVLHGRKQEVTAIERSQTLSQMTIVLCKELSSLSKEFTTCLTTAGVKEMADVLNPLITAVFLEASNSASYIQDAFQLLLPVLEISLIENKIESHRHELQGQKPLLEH
# UniProt O43414: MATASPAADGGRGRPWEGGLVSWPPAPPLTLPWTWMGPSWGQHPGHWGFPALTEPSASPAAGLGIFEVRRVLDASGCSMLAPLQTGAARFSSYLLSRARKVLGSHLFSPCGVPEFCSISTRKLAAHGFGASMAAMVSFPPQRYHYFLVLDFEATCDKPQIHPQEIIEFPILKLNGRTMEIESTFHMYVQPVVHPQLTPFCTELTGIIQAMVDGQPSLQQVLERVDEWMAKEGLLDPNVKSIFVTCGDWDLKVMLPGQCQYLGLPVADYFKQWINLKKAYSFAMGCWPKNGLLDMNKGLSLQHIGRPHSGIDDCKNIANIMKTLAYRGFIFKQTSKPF
# UniProt O75063: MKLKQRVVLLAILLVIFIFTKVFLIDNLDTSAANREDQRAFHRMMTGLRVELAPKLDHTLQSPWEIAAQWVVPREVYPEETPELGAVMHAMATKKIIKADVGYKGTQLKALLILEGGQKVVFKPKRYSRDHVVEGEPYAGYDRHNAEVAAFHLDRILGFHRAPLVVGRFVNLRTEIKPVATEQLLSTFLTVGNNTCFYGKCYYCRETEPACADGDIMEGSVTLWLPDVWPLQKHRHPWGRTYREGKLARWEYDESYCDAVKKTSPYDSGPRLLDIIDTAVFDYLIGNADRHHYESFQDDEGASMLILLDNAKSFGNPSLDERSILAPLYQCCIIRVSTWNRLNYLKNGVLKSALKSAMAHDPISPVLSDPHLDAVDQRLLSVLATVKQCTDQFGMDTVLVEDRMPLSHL
# UniProt Q7L775: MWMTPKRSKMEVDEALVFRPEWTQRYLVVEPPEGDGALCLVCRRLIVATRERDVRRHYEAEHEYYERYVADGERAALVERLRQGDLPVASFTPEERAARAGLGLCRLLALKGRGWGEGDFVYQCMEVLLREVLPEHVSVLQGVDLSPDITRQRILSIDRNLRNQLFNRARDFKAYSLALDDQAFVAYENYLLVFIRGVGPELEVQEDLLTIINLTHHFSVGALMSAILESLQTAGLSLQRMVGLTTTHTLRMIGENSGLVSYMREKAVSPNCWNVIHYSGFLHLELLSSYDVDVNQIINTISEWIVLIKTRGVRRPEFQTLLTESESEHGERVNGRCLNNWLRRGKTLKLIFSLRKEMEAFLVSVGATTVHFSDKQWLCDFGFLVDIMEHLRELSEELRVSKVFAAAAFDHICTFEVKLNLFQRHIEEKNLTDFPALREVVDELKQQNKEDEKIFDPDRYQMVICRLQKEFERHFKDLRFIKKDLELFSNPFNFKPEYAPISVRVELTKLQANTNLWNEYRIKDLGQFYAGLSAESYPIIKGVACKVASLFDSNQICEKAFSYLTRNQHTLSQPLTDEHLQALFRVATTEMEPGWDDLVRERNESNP
# UniProt O95571: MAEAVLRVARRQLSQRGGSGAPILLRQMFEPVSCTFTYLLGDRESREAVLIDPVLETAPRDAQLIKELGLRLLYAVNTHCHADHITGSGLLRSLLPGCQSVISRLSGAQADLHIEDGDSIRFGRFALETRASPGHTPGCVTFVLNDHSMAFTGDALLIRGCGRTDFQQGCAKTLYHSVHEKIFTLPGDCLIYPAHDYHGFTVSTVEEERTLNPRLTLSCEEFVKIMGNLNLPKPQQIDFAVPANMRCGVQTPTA
# UniProt O00471: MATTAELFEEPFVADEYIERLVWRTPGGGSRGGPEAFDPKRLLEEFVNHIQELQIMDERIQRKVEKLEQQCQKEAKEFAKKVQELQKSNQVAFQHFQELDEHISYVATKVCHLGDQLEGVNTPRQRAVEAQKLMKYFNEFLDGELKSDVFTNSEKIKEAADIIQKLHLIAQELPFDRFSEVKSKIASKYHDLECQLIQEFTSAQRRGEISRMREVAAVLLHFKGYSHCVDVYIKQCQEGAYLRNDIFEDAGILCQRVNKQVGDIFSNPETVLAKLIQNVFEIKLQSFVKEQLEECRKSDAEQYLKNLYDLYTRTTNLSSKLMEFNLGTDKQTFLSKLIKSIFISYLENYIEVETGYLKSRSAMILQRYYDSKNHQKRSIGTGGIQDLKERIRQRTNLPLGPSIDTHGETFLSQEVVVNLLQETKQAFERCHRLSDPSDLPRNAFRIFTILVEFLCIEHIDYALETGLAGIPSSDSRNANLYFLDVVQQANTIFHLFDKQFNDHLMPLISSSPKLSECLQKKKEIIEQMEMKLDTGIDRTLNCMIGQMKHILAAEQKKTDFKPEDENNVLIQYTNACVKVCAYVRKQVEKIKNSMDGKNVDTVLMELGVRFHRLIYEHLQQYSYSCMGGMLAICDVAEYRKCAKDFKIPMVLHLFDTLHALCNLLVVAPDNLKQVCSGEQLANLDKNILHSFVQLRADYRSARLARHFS
# UniProt Q9C073: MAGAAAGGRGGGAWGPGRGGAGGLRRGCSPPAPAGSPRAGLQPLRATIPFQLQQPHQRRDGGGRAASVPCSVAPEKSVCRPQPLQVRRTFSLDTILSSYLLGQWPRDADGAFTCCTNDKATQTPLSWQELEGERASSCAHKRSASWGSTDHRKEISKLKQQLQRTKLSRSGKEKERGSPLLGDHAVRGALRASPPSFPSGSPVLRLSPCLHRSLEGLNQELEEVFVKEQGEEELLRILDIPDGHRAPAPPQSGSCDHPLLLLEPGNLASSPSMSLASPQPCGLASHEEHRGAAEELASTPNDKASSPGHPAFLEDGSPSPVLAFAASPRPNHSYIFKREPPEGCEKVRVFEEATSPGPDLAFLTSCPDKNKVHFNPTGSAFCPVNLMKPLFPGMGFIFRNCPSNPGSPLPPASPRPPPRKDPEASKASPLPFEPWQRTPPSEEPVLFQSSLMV
# UniProt Q96RT1: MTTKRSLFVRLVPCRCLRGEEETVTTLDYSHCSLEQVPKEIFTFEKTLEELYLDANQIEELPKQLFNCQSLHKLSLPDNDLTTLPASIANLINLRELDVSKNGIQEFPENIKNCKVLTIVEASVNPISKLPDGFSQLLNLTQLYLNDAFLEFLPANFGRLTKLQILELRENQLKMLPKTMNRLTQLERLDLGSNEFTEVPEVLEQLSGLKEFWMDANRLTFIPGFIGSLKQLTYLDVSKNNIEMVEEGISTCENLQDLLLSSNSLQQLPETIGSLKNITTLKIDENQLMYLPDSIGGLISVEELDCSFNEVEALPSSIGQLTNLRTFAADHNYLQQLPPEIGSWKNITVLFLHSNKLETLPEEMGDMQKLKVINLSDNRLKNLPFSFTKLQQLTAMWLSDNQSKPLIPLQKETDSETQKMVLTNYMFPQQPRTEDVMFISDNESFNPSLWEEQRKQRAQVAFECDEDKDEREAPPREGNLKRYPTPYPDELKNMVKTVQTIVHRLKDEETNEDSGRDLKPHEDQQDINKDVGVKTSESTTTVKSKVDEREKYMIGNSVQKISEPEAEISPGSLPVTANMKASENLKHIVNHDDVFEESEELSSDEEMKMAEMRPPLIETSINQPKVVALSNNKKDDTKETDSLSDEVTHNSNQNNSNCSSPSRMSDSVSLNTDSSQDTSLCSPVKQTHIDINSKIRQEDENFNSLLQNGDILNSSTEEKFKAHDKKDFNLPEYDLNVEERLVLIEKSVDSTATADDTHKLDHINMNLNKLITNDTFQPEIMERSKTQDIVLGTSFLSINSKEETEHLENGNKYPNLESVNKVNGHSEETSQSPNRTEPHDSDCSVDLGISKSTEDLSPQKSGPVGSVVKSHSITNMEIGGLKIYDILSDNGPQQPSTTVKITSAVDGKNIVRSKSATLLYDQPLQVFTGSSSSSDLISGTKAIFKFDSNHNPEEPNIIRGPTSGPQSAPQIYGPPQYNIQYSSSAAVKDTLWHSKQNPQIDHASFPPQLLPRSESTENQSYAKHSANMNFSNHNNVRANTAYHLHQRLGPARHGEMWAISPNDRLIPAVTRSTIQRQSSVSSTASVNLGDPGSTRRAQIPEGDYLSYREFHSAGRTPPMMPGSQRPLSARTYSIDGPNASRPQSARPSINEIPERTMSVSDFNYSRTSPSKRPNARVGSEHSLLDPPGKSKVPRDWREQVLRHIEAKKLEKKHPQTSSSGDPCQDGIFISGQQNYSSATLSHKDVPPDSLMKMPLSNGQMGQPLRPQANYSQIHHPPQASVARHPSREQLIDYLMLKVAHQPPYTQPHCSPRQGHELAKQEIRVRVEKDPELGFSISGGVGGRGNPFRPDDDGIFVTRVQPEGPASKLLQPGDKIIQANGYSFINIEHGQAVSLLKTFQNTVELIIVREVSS
# UniProt Q96E09: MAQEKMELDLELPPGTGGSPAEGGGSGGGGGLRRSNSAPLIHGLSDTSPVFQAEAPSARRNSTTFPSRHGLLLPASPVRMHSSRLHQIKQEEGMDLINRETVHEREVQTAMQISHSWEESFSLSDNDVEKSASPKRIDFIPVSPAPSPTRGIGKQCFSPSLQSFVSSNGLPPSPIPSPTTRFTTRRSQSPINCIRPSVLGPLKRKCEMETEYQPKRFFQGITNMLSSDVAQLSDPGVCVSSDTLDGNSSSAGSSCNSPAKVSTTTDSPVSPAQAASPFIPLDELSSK
# UniProt Q6IPR1: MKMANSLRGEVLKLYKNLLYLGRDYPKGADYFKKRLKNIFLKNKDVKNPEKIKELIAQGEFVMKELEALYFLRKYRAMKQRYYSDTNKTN
# UniProt Q96B26, whole entry, looked up: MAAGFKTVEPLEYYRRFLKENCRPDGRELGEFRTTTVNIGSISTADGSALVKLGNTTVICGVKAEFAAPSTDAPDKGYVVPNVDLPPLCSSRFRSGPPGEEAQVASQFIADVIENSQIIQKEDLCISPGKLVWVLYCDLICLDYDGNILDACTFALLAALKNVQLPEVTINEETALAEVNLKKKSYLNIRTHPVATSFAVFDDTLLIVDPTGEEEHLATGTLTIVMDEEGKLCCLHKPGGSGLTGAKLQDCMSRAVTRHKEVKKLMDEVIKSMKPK
# Some of the results follow.
# Legend:
# Assay in all cases: log2 fold change, soluble protein after heating vs DMSO (PISA); higher = thermal stabilisation; K562 cells, 10 uM, 30 min; active = over 0.2 and 3.5 SD of the protein, either way, in both replicates (recomputed)
# [1] = compound: CC1=C(C=C(C=C1)NC(=O)C2=CC(=CC=C2)C(C)(C)C#N)NC3=CC4=C(C=C3)N=CN(C4=O)C
# Summary of the method: (§1)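 K562 cells at 2×10^6 cells/mL were given 10 μM compound for 30 min. Aliquots then went through 3 min of heating across 48°C-58°C, were pooled, and were extracted in PBS with 0.5% NP-40 at 4°C, and the supernatant after 21,000xg for 90 min was quantified by TMTpro 16plex LC-MS/MS with channel sums equalised. Thermal stability relative to control samples, from duplicates, is given as log2 fold change.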
# [2] = compound: CC1=C(C=C(C=C1)NC(=O)C2=CC(=CC=C2)N(C)C)NC(=O)C3=CC=C(C=C3)O
# Summary of the method: as §1
# [3] = compound: CC1=CC=C(C=C1)SC2=C3C=C(SC3=CN=C2)C(=O)N
# Summary of the method: as §1
# [4] = compound: CC1=NC(=CC=C1)C2=C(N=C(N2)C(C)(C)C)C3=CC4=NC=CN=C4C=C3
# Summary of the method: as §1
# Nexturastat A = compound: CCCCN(Cc1ccc(C(=O)NO)cc1)C(=O)Nc1ccccc1 [Nexturastat A]
# Summary of the method: as §1
# vemurafenib = compound: CCCS(=O)(=O)Nc1ccc(F)c(C(=O)c2c[nH]c3ncc(-c4ccc(Cl)cc4)cc23)c1F [vemurafenib]
# Summary of the method: as §1
# [5] = compound: CCCS(=O)(=O)Nc1ccc(F)c(C(=O)c2c[nH]c3ncc(Cl)cc23)c1F
# Summary of the method: as §1
# [6] = compound: CCCc1cc(C)[nH]c(=O)c1CNC(=O)c1cc(-c2ccnc(N3CCN(C)CC3)c2)cc2c1cnn2C(C)C
# Summary of the method: as §1
# givinostat = compound: CCN(CC)Cc1ccc2cc(COC(=O)Nc3ccc(C(=O)NO)cc3)ccc2c1 [givinostat]
# Summary of the method: as §1
# barasertib = compound: CCN(CCCOc1ccc2c(Nc3cc(CC(=O)Nc4cccc(F)c4)[nH]n3)ncnc2c1)CCOP(=O)(O)O [barasertib]
# Summary of the method: as §1
Target,log2 fold change [1],log2 fold change [2],log2 fold change [3],log2 fold change [4],log2 fold change (Nexturastat A),log2 fold change (vemurafenib),log2 fold change [5],log2 fold change [6],log2 fold change (givinostat),log2 fold change (barasertib)
FAM162A (UniProt Q96A26),inactive: -0.006,inactive: 0.01,inactive: 0.051,inactive: -0.026,inactive: -0.047,inactive: 0.025,inactive: 0.047,inactive: -0.037,inactive: -0.019,inactive: -0.034
FAM177A1 isoform 2 (UniProt Q8N128),inactive: -0.071,inactive: 0.152,inactive: 0.101,inactive: 0.039,inactive: -0.064,inactive: -0.061,inactive: 0.014,inactive: -0.02,inactive: -0.045,inactive: 0.037
EXO5 (UniProt Q9H790),inactive: -0.068,–,–,–,–,–,–,–,–,–
EXOC1 (UniProt Q9NV70),inactive: -0.026,inactive: -0.01,inactive: 0.019,inactive: 0.027,inactive: 0.115,inactive: -0.023,inactive: 0.028,inactive: 0.08,inactive: 0.07,inactive: 0.082
FAM114A2 (UniProt Q9NRY5),inactive: 0.007,inactive: 0.03,inactive: 0.038,inactive: 0.022,inactive: -0.053,inactive: 0.001,inactive: 0.061,inactive: -0.058,inactive: -0.017,inactive: 0.01
F5 (UniProt P12259),inactive: 0.056,inactive: 0.036,inactive: -0.027,inactive: 0.011,inactive: -0.04,inactive: 0.066,inactive: -0.016,inactive: -0.036,inactive: -0.01,inactive: 0.034
EZR (UniProt P15311),inactive: 0.021,inactive: -0.01,inactive: -0.005,inactive: 0.02,inactive: -0.071,inactive: 0.007,inactive: -0.005,inactive: 0.014,inactive: -0.037,inactive: 0.009
ERCC6 (UniProt Q03468),inactive: -0.127,inactive: -0.038,inactive: 0.005,inactive: -0.038,inactive: -0.126,inactive: 0.064,inactive: 0.074,inactive: -0.017,inactive: 0.071,inactive: 0.065
EXOSC2 (UniProt Q13868),inactive: 0.015,inactive: 0.008,inactive: 0.002,inactive: -0.017,inactive: 0.001,inactive: 0.016,inactive: -0.032,inactive: -0.056,inactive: -0.011,inactive: -0.014
ERI3 (UniProt O43414),inactive: 0.038,inactive: -0.003,inactive: -0.02,inactive: 0.027,inactive: 0.006,inactive: -0.031,inactive: -0.005,inactive: -0.004,inactive: 0.009,inactive: 0
ESPL1 (UniProt Q14674),inactive: -0.153,inactive: 0.087,inactive: 0.17,inactive: -0.228,inactive: 0.369,inactive: -0.215,inactive: -0.086,inactive: 0,inactive: 0.185,inactive: 0.035
EXOSC9 isoform 2 (UniProt Q06265),inactive: -0.078,inactive: 0.047,inactive: 0.001,inactive: -0.023,inactive: 0.002,inactive: -0.025,inactive: 0.016,inactive: -0.026,inactive: -0.001,inactive: -0.031
FAM20B (UniProt O75063),inactive: -0.011,inactive: -0.009,inactive: 0.004,inactive: -0.042,inactive: 0.03,inactive: -0.023,inactive: 0,inactive: -0.014,inactive: 0.035,inactive: 0.02
EPM2AIP1 (UniProt Q7L775),inactive: -0.024,inactive: 0.015,inactive: -0.025,inactive: -0.011,inactive: 0.016,inactive: 0.03,inactive: 0.003,inactive: -0.033,inactive: -0.029,inactive: 0.039
FAF2 (UniProt Q96CS3),inactive: 0.015,inactive: -0.021,inactive: 0.008,inactive: -0.016,inactive: 0.009,inactive: 0.038,inactive: 0.008,inactive: -0.039,inactive: 0.036,inactive: 0.021
ETHE1 (UniProt O95571),inactive: -0.046,inactive: 0.006,inactive: -0.029,inactive: 0.003,inactive: -0.054,inactive: -0.046,inactive: -0.011,inactive: -0.05,inactive: -0.062,inactive: -0.069
EPPK1 (UniProt P58107),inactive: 0.108,inactive: 0.02,inactive: 0.091,inactive: -0.134,inactive: 0.34,inactive: -0.173,inactive: -0.317,inactive: 0.135,inactive: 0.133,inactive: 0.034
"FADS1, A0A0A0MR51",inactive: 0.09,inactive: -0.019,inactive: 0.008,inactive: 0.069,inactive: -0.006,inactive: -0.002,inactive: 0.021,inactive: -0.034,active: -0.274,inactive: 0.031
ETF1 (UniProt P62495),inactive: 0.006,inactive: -0.007,inactive: 0.002,inactive: 0.004,inactive: -0.02,inactive: 0.007,inactive: 0.017,inactive: -0.027,inactive: 0.007,inactive: 0.01
EXOC5 (UniProt O00471),inactive: 0.006,inactive: -0.022,inactive: -0.007,inactive: 0.056,inactive: 0.017,inactive: 0.046,inactive: 0.08,inactive: -0.028,inactive: 0.118,inactive: 0.031
FAM117A (UniProt Q9C073),inactive: 0.036,inactive: 0.013,inactive: -0.007,inactive: -0.034,inactive: 0.004,inactive: -0.023,inactive: -0.004,inactive: -0.001,inactive: 0.109,inactive: 0.053
FADD (UniProt Q13158),inactive: 0.011,inactive: -0.046,inactive: 0.026,inactive: 0.056,inactive: 0.108,inactive: -0.012,inactive: 0.018,inactive: 0.096,inactive: 0.057,inactive: 0.09
ERBIN isoform 8 (UniProt Q96RT1),inactive: 0.147,inactive: 0.033,inactive: -0.029,inactive: 0.018,inactive: 0.071,inactive: -0.012,inactive: -0.01,inactive: 0.066,inactive: -0.021,inactive: -0.002
FAM122A (UniProt Q96E09),inactive: -0.01,inactive: -0.005,inactive: 0.045,inactive: -0.006,inactive: 0.107,inactive: -0.017,inactive: 0.095,inactive: 0.026,inactive: 0.064,inactive: -0.016
FAM133B (UniProt Q5BKY9),inactive: -0.023,inactive: 0.03,inactive: -0.011,inactive: 0.039,inactive: 0.056,inactive: -0.044,inactive: -0.016,inactive: -0.072,inactive: -0.033,inactive: -0.08
ETFRF1 (UniProt Q6IPR1),inactive: -0.114,inactive: 0.002,inactive: 0,inactive: 0.016,inactive: 0.005,inactive: 0.086,inactive: -0.079,inactive: 0.033,inactive: 0.022,inactive: -0.046
EXOSC8 (UniProt Q96B26),inactive: -0.03,inactive: 0.009,inactive: -0.018,inactive: -0.01,inactive: 0.006,inactive: -0.014,inactive: -0.026,inactive: -0.038,inactive: -0.054,inactive: -0.044
FAHD2A (UniProt Q96GK7),inactive: -0.028,inactive: -0.004,inactive: 0.004,inactive: -0.002,inactive: -0.037,inactive: 0,inactive: 0.008,inactive: -0.01,inactive: -0.019,inactive: -0.017
ETNPPL (UniProt Q8TBG4),inactive: -0.062,inactive: 0.314,inactive: -0.085,inactive: 0.053,inactive: -0.37,inactive: 0.034,inactive: -0.051,inactive: -0.228,inactive: -0.233,inactive: -0.012
FAM136A (UniProt Q96C01),inactive: -0.002,inactive: -0.059,inactive: 0.041,inactive: 0.063,inactive: 0.011,inactive: 0.006,inactive: 0,inactive: -0.041,inactive: 0,inactive: 0.03

# Pulled one by one from the list above:
Target,log2 fold change [1],log2 fold change [2],log2 fold change [3],log2 fold change [4],log2 fold change (Nexturastat A),log2 fold change (vemurafenib),log2 fold change [5],log2 fold change [6],log2 fold change (givinostat),log2 fold change (barasertib)
EXOC1 (UniProt Q9NV70),inactive: -0.026,inactive: -0.01,inactive: 0.019,inactive: 0.027,inactive: 0.115,inactive: -0.023,inactive: 0.028,inactive: 0.08,inactive: 0.07,inactive: 0.082
FAM122A (UniProt Q96E09),inactive: -0.01,inactive: -0.005,inactive: 0.045,inactive: -0.006,inactive: 0.107,inactive: -0.017,inactive: 0.095,inactive: 0.026,inactive: 0.064,inactive: -0.016
